Values quoted from earlier work, collected in patent US20190021385A1, “ORALLY DISSOLVABLE COMPOSITIONS FOR NUTRITION SUPPLEMENTATION” (Exeltis USA, Inc., priority 2017, published 2019).
For at least one compound, name, drawing or mass did not settle the structure.

Key:
[1] = supplementation during pregnancy; Smuts et al. 2003
[2] = hyperlipidemic men; Mori et al. 1999

| SMILES | increase in length of gestation [1] | effect on ambulatory blood pressure and heart rate [2] |
| --- | --- | --- |
| CC/C=C\C/C=C\C/C=C\C/C=C\C/C=C\C/C=C\CCC(=O)O [DHA, docosahexaenoic acid] | about six | reduce ambulatory blood pressure and heart rate |
| CC/C=C\C/C=C\C/C=C\C/C=C\C/C=C\CCCC(=O)O [EPA, eicosapentaenoic acid] |  | not |
